In PubChem BioAssay AID1794845 (National Center for Advancing Translational Sciences (NCATS), 2023):
The campaign covered roughly 6,900 compounds. Fewer than 10 were called active. Calls follow the shape of the dose curve; as a rule, active = well fitted curve in the direction sought with a large enough effect; inconclusive = small, poorly fitted or top-dose-only effect, or another doubt; inactive = no such curve, though single readings can be large or run the other way. Some of the results follow.

Sequences of proteins named here, by UniProt entry; tags and fusion partners are left off. A change or cut given only in a name is not applied to a line headed by its entry.
UniProt C7C422: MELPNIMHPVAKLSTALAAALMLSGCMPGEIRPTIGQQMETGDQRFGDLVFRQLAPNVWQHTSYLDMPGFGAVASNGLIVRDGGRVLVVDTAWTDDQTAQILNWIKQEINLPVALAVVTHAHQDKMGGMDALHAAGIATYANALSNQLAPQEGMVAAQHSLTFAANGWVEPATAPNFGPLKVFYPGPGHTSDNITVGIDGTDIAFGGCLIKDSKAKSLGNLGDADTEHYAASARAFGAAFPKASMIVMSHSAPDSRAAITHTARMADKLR

The molecules below were run against Metallo-beta-lactamase type 2 (Klebsiella pneumoniae) (UniProt C7C422) (assay: qHTS to identify inhibitors of the New Delhi Metallo-beta-lactamase (NDM): primary screen against the NCATS Gemini Collection). Settings: NDM-1 enzyme, meropenem hydrolysis, absorbance 300 nm; at 38.4 µM (top of the series) unless noted.
How it was run: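 NDM-1 at 2 nM final in 50 mM HEPES pH 7.0, 1 uM ZnSO4, 0.01% Tween20, preincubated >30 min with compound. Meropenem 50 uM final added; absorbance at 300 nm after 30 min.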
Also: % of control where 0% means no effect.

Activity % (negative = inhibition), inactive:
O=C(NCc1cccs1)c1cc(C2CC2)nc2onc(C3CCCNC3)c12 (centres undefined) 4.14%
CCn1nc(C)cc1S(=O)(=O)N[C@H]1[C@H]2CCO[C@H]2[C@@H]1N1CCCCC1 -5.56%
CN1C(=O)C(CC(=O)N2CCC(C#N)CC2)(Cc2ccccc2)c2ccccc21 (centres undefined) -0.488%
C=CCNC(=O)N[C@H]1[C@H](O)[C@@H](NCCOC)[C@@H]2OC[C@H]1O2 12.2% [at 57.5 µM]
Cn1cc(C(=O)N2CCC(N(Cc3ccccc3)C3CCOCC3)CC2)cn1 -2.23%
C=CCC1(CO)CCCN(C(=O)CCCn2nc(C)cc2C)C1 (centres undefined) 1.16%
CC(c1ccc(-c2cc(N3CCN(C)CC3)nc(N)n2)cc1)N1CCOCC1 (centres undefined) 9.83%
NC(=O)CN1C(=O)CO[C@H]2CN(Cc3ccc(Cl)cc3)C[C@H]21 7.04% [at 57.5 µM]
CCNC(=O)N1C[C@@H](F)[C@@H](OCc2nc3ccc(F)cc3[nH]2)C1 6.65% [at 57.5 µM]
CCCS(=O)(=O)N1CCCC(Cn2c(C)nc3cccnc32)C1 (centres undefined) 12.3%
CCN1CCN(Cc2cc3ccc(C)cc3nc2-c2ccc(OC)c(OC)c2)CC1 4.02%
CC(C)CNC(=O)c1ccc2nnc(C(C)(C)C)n2c1 36.1% [at 57.5 µM]
COCCNC(=O)CC[C@]12CC[C@](C)(O)C[C@H]1C(C)(C)C[C@@H]2NS(=O)(=O)c1ccc(C)cc1 24.6%
COc1cccc(-c2[nH]cnc2-c2ccccc2)c1OCCCN(C)C 1.78%
F[C@@H]1CN(Cc2nccs2)C[C@@H]1OCc1nc2ccccc2o1 11.2% [at 57.5 µM]
O=C(COc1ccccc1)NC1CCc2nnc(C3CC3)n2CC1 (centres undefined) -0.21%
CN(C(=O)c1cccc2ccccc12)C1CCCN(C2Cc3ccccc3C2)C1 (centres undefined) -0.781%
COc1ccccc1NC(=O)N1CC(C(=O)NCC2CC2)CC(c2ccccc2)C1 (centres undefined) 24.9%
COC(=O)[C@@H]1Cc2ncn(Cc3ccccc3)c2CN1C(=O)c1cccs1 9.04% [at 57.5 µM]
CCOc1ccccc1CN1C[C@@H](CO)[C@H](C2CCN(C(C)=O)CC2)C1 -5.29%
CNC(=O)c1cc(C2CC2)nc2c1c(C1CCCN(C(=O)Cc3ccccn3)C1)nn2C (centres undefined) 6.71%
CC(C)C[C@@H](NC(=O)[C@@H]1C[C@@H](NC(=O)c2cnccn2)CCN1C(=O)COCC(=O)O)C(N)=O -1.34%
Cc1ccc(N2CC(C)N(C(=O)c3ccc(-n4cnnn4)cc3)CC2=O)cc1 (centres undefined) 6.66%
Cc1ccc(-c2nnc3ccc(-c4ccoc4)nn23)nc1 18% [at 77.1 µM]
O=C(c1cn[nH]c1-c1ccc(F)cc1)N1CC2CC(C1)[C@H]1CCCC(=O)N1C2 (some centres undefined) -1.35%
O=C(Nc1ccccc1F)C1CN(C2CCCCC2)C(=O)N1 (centres undefined) 10.1% [at 57.5 µM]
CNC(=O)c1cc[nH]c1C1CCCN(C(=O)Cc2ccsc2)C1 (centres undefined) 2.21%
O=C(NCc1ccccc1)C1CCN(c2cnc3nccnc3c2)CC1 3%
CN(C)C[C@@H]1CN(c2ncccn2)C[C@H]1NS(=O)(=O)c1ccc(Cl)cc1 1.78%
COc1ccccc1C(=O)N1CCC2(C1)C(=NC1CCCCC1)NC(=O)N2c1cc(F)cc(F)c1 (centres undefined) 11.2%
CSc1ccc(C(=O)N2C[C@@H](CN3CCN(C)CC3)[C@@H](CO)C2)cc1 1.48%
COCC(=O)N[C@H]1CCN(C(=O)COC)[C@H](C(=O)N[C@H](Cc2c[nH]c3ccccc23)C(N)=O)C1 1.71%
COc1ccc(OCc2nc(C)c(CCO)c(=O)n2CC(=O)NC(C)CCc2ccccc2)cc1 (centres undefined) 4.23%
Cc1ccccc1CN1CCC(N2CCCC(C(=O)NC3CC3)C2)CC1 (centres undefined) 11.3%
C=CCCC(CN1CCCC1)Oc1ccc(C(=O)NCC)cn1 (centres undefined) 2.49%
O=C1CCCCC(CNC(=O)c2cn[nH]c2-c2ccccc2)N1 (centres undefined) -5.25%
Cc1nnc2n1CCC(NC(=O)c1ccoc1)CC2 (centres undefined) -0.203%
O=C(Cn1ccnc1)N1CCC(N2C(=O)C3(CCCC3)C2c2ccccc2)CC1 (centres undefined) -1.04%
COc1ccc(OC)c(S(=O)(=O)N2CC(N(C3CCOCC3)S(C)(=O)=O)C2)c1 5.32%
CCOCC(=O)N[C@@H]1CN(S(C)(=O)=O)C[C@H]1CN(C)C -0.0867%
CCCc1ccc2oc(C(=O)N(C)CCC3CCCCO3)c(C)c2c1 (centres undefined) 4.21%
O=C(Nc1ccccc1)c1cnc2c(c1)N(C(=O)Cc1ccc(O)cc1)CCC2 8.52% [at 57.5 µM]
O=C(CC1CCCC1)N1C[C@@H](CO)[C@@H]2Oc3ccc(Cl)cc3[C@@H]21 7.23%
Cc1nc(C)c(C(=O)N2Cc3ccccc3C(O)C2)s1 (centres undefined) 2.96%
COc1ccccc1CNC(=O)c1ccc2c(c1)N(C)C1CCCCN1C2=O (centres undefined) -18.5%
O=C(NC1CCCCC1)C1CN(C(=O)c2ccc(Br)o2)CC12CCOCC2 (centres undefined) 7.29%
CN(C)[C@H]1CCN(C(=O)c2ccc(SCCO)cc2)C[C@H]1CCC(=O)O 3.94%
CN(C)C[C@@H]1CN(c2ccccn2)C[C@H]1NC(=O)NC(C)(C)C -0.112%
O=C(CC1CCOC2(CCN(Cc3cccs3)CC2)C1)NC1CC1 (centres undefined) 2.86%
CN(C)c1nc2c(c(=O)[nH]1)CCN(Cc1ccsc1)CC2 2.54%
CCNC(=O)[C@@H]1C[C@H](n2cc(CN(C)C(=O)NC3CCCCC3)nn2)CN1 35.9%
COc1nccnc1NC1CCN(C(=O)NC2CCCC2)CC1 10.1%
COCCCn1c(C)cc(C(=O)N2CCCC(c3[nH]ccc3C(N)=O)C2)c1C (centres undefined) 1.15%
CN(C)CC(O)c1cc2n(n1)CCN(C(=O)c1cc(=O)[nH]c(=O)[nH]1)C2 (centres undefined) 0.619%
FC(F)(F)c1ccc(CN2CCCC3(CC(c4ccccn4)=NO3)C2)cc1 (centres undefined) 11.7%
O[C@@H]1CO[C@H]2[C@@H]1OC[C@@H]2n1nnnc1Sc1ncccn1 -0.504% [at 57.5 µM]
COc1ccc(C(=O)N2CCn3nc(C(O)CS(C)(=O)=O)cc3C2)cn1 (centres undefined) 8.65%
O=C(O)C[C@@H]1CCN(C(=O)c2ccc(F)cc2)C[C@@H]1CCN1CCN(c2ccc(F)cc2)CC1 -0.0953%
O=C(NC1CCCCC1)c1ccc2oc(-c3ccnc(Cl)c3)nc2c1 2.2%
Cc1ccc(S(=O)(=O)NC[C@H]2OC[C@@H](NCc3ccc(S(C)(=O)=O)cc3)[C@@H]2O)cc1 -1.22%
CCCOc1c(CN2CCCNCC2)cc(Cl)cc1OC -3.43%
CN1C(=O)N(C)C2(CCN(CCOc3ccccc3)C2)C1=O (centres undefined) -7.52%
CCNC(=O)N1CC[C@H]2CC(=O)N(CCc3cccc(OC)c3OC)CC[C@H]2C1 -7.76% [at 57.5 µM]
Cc1ccccc1Cn1cc(-c2ccncc2)cc1C(=O)N1CCCC1 15.8%
Cn1nc(C(=O)N2CCOc3ccc(CCC(N)=O)cc3C2)c2ccccc21 6.62%
O=C(Nc1ccccc1F)N1CC2CCC(C1)N2Cc1ccc(-c2cc(F)cc(F)c2)cc1 0.611%
CN(C)C[C@@H]1CN(Cc2cccnc2)C[C@H]1NC(=O)CCn1cccn1 25.7%
O=C(c1cc2n(n1)CC(c1ccc(Cl)cc1)OC2)N1CCCCC1 (centres undefined) 14.8%
O=C(NCCCc1ccccc1)C1CN(C2CCCC2)C(=O)N1 (centres undefined) 6.24% [at 57.5 µM]
Cc1ccc(CC(=O)N2CCC3(C2)C(=O)N(C)c2ccccc23)cc1 (centres undefined) -1.96%
O=C1Nc2ccccc2C2(CCN(C(=O)c3ccccc3F)C2)O1 (centres undefined) -0.396% [at 57.5 µM]
O=C(NC1CCCCC1)c1ccc2nnc(Cc3ccc(Cl)cc3)n2c1 35.2%
CC(c1cccc(-c2cccc(C(=O)N(C)C)n2)c1)N1CCCC1 (centres undefined) -4.1%
C=CCN1CCN(C(=O)c2ccc3c(c2)C(O)CCCCCN3CCOC)CC1 (centres undefined) -0.725%
O=C(c1ccccc1)N1CCC2(CC1)C(=O)NCN2Cc1ccc(Cl)cc1 -8.28%
COCC(=O)NC[C@H]1O[C@@H](CO)[C@@H](O)[C@H]1N1CCc2ccccc2C1 2.47% [at 57.5 µM]
Cc1nn2c(c1-c1cccnc1N1CCOCC1)N(C(=O)c1cc3ccccc3n1C)CCC2 43.4%
COc1ccccc1CN1CCCC(CN(CCN(C)C)C(=O)c2ccccc2OC)C1 (centres undefined) 6.01%
CN(CCCN1c2ccccc2CCc2ccccc21)C(=O)C1CNCCO1 (centres undefined) 0.427%
CC(C)(C)CC(=O)N1CCN2C(=O)c3ccc(Cl)cc3NC(=O)[C@H]2C1 51.1% [at 57.5 µM]
COc1cccc(-c2cc(C3CCN(C(=O)Nc4ccccc4C(F)(F)F)CC3)[nH]n2)c1 -2.65%
COc1ccc(N2CC3CCC(C2)N3CC2CCCC2)cc1 5.97% [at 57.5 µM]
Cc1cccc(=O)n1CCC(=O)NCc1cc2n(n1)CCN(C(=O)N(C)C)C2 2.33%
O=C(c1cccs1)N1CCCCCC1CN1CCCC1 (centres undefined) 27.3%

Among those listed so far, 2 contain a CF3 group:
Activity % (negative = inhibition), inactive:
FC(F)(F)c1ccc(CN2CCCC3(CC(c4ccccn4)=NO3)C2)cc1 (centres undefined) 11.7%
COc1cccc(-c2cc(C3CCN(C(=O)Nc4ccccc4C(F)(F)F)CC3)[nH]n2)c1 -2.65%

Some of these compounds in order of length of the SMILES, smallest number first:
Activity % (negative = inhibition), inactive:
O=C(COc1ccccc1)NC1CCc2nnc(C3CC3)n2CC1 (centres undefined) -0.21%
Cc1ccccc1CN1CCC(N2CCCC(C(=O)NC3CC3)C2)CC1 (centres undefined) 11.3%
COc1ccc(OC)c(S(=O)(=O)N2CC(N(C3CCOCC3)S(C)(=O)=O)C2)c1 5.32%
COCC(=O)N[C@H]1CCN(C(=O)COC)[C@H](C(=O)N[C@H](Cc2c[nH]c3ccccc23)C(N)=O)C1 1.71%
